Experimental data from PubChem BioAssay AID504444 (National Center for Advancing Translational Sciences (NCATS), 2011).
Among all 360,000 compounds or so, about 7,500 (2.1%) were called active. The inconclusive results got no clear call from the source; some entries with a clear call stand among them for comparison. Calls follow the shape of the dose curve; as a rule, active = well fitted inhibition curve with a large enough effect; inconclusive = small, poorly fitted or top-dose-only effect, or effect the other way; inactive = flat fitted curve, though single readings scatter. Potencies of inconclusive entries are doubtful fits and often do not repeat.

Assay: Nrf2 qHTS screen for inhibitors; also: nearly all actives have a fitted effect of over 60% in size
Conditions: A549 ARE-Fluc reporter, luciferase luminescence, 18-24 h; activity change, negative = inhibition: at 46 µM (top of the series)
Outline: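 Reporter: ARE-Fluc in A549. Exposure: 18-24 h, 37 °C, 5% CO2, 5% FBS OPTI-MEM. Readouts: fluorescent cytotoxicity (CellTiter-Fluor), then luminescent Nrf2 signal after BugLite.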
% is scaled to controls: 0 for no effect and ±100 for the full control effect; potency is read from the fitted curve at half-maximal effect.

SMILES | activity change, negative = inhibition | Potency
Cc1cc(Nc2ncc(Cl)cc2Cl)n(-c2ccccc2C)n1 | inactive: -18.1% | 
Cc1ccc(C)c(Nc2ncnc3onc(C)c23)c1 | inactive: 4.29% | 
Cc1cc(C)cc(C(=O)Nc2ccc(NC(=O)Cc3ccccc3)cc2)c1 |  | inconclusive: 14.6 µM [falling, partial curve]
N/C(=N\OC(=O)COc1ccc(Cl)cc1Br)c1cccnc1 |  | inconclusive: 6.51 µM [activator, partial curve, poor fit]
Nc1nonc1C(=O)N/N=C/c1cc(Br)ccc1O |  | inconclusive: 18.4 µM [falling, partial curve, poor fit]
Cc1nc(SCC(=O)Nc2c(C)nn(C)c2C)c2cnn(-c3ccccc3)c2n1 |  | inconclusive: 11.6 µM [falling, partial curve, poor fit]
CCCOc1ccc(/C=C/C(=O)N2CCOCC2)cc1 |  | inconclusive: 20.6 µM [activator, partial curve]
CCN(CC)c1ccc(NC(=O)c2cc(C)nc3c2c(C)nn3-c2cccc(F)c2)c(C)c1 |  | inconclusive: 4.11 µM [falling, partial curve, poor fit]
Cc1ccc(OCC(=O)OCc2cc(=O)n3nc(C4CCCCC4)sc3n2)cc1C |  | inconclusive: 16.4 µM [activator, partial curve, poor fit]
COc1cc(/C=C(\C#N)C(=O)Nc2cccc(C(=O)O)c2)ccc1OCc1ccc(Cl)cc1 | inactive: 15.2% | 
N#CCCN(CCC#N)S(=O)(=O)c1ccc(C(=O)Nc2nnc(C3=COCCO3)o2)cc1 | inactive: 13.3% | 
CCC1CN(C(=O)N2CCC(C(=O)NCCc3ccccc3C)CC2)c2ccccc2O1 (configuration not stated) |  | inconclusive: 16.4 µM [falling, partial curve]
O=C(NC(=S)NN1CCCCC1c1cccnc1)c1ccc(Br)cc1 (configuration not stated) |  | inconclusive: 9.2 µM [falling, partial curve, poor fit]
COc1ccc(C(=O)Nc2cc(C(C)C)c(O)c(S(=O)(=O)c3ccc(Cl)cc3)c2C)cc1 |  | inconclusive: 2.06 µM [activator, partial curve]
Cc1ccc2c(c1)nnn2C1CCN(CC(=O)Nc2ccccc2N2CCOCC2)CC1 |  | inconclusive: 4.11 µM [falling, full curve, poor fit]
COc1ccc(C(=O)O/N=C(\N)Cc2ccc(Cl)cc2Cl)cc1OC |  | inconclusive: 29.1 µM [falling, single point]
NC(=O)CSc1nnc(-c2cccc(S(=O)(=O)N3CCCCC3)c2)o1 |  | inconclusive: 2.91 µM [falling, partial curve, poor fit]
O=C(OCC(=O)N1CCCCC1)c1c[nH]c2ccccc12 |  | inconclusive: 20.6 µM [activator, single point]
O=C(Nc1nnc(C2CC2)s1)C1COc2ccccc2O1 (configuration not stated) |  | inconclusive: 0.82 µM [activator, full curve]
Cc1cccc(-n2nnnc2SCC(=O)c2cc(C)n(Cc3ccco3)c2C)c1 |  | inconclusive: 25.9 µM [falling, single point]
CCCNc1nc2c(c(=O)n(C)c(=O)n2C)n1Cc1ccc(F)cc1 |  | active: 14.6 µM
O=C(Nc1ccc(N2CCN(C(=O)c3ccco3)CC2)cc1)c1ccccc1Br |  | inconclusive: 11.6 µM [falling, partial curve]
CCn1nc(C)c2c(-c3ccccc3)cc(=O)n(C(C)C(=O)NCc3cccc(OC)c3)c21 (configuration not stated) |  | inconclusive: 18.4 µM [falling, partial curve, poor fit]

SMILES | activity change, negative = inhibition | Potency
CN(CC(=O)Nc1nc2ccccc2s1)S(=O)(=O)c1ccc(Br)cc1 |  | inconclusive: 29.1 µM [falling, single point]
CC(=O)Nc1ccc(S(=O)(=O)NC(CC(=O)NCCc2ccccc2)C(C)C)cc1 (configuration not stated) | inactive: 6.82% | 
CC(C)Sc1nc2c(c(=O)[nH]c(=O)n2C)n1Cc1ccccc1 | inactive: -16.8% | 
CCC(CC)NC(=O)/C=C/c1ccccc1Cl |  | inconclusive: 13 µM [activator, partial curve, poor fit]
CCc1ccc(NC(=O)c2cnn3c(C(F)F)cc(C)nc23)cc1 |  | inconclusive: 0.517 µM [activator, full curve]
CNC(=O)c1ccsc1NC(=O)c1ccc2c(c1)CCCC2 |  | inconclusive: 9.2 µM [activator, single point]
CNCCCOc1ccc(Cl)cc1C(C)(C)C | inactive: -4.71% | 
O=S(=O)(Nc1ccccc1N1CCCCC1)c1ccc(F)cc1 |  | inconclusive: 9.2 µM [falling, partial curve]
CN(CCc1ccccc1)C(=O)c1cccc(NC(=O)Cc2cccc(NC(=O)C3CCCN(C(=O)CCc4ccccc4)C3)c2)c1 (configuration not stated) |  | active: 23.1 µM
Cc1cc2ncn(/N=C/c3ccc4c(c3)OCO4)c2cc1C |  | inconclusive: 14.6 µM [activator, partial curve, poor fit]
Cc1ccc(S(=O)(=O)N(C)CCN(C)c2nc(-c3cccs3)nc3ccccc23)cc1 | inactive: -2.45% | 
Cn1ncc2ccc(-c3ccc4ncnc(NCc5cccs5)c4c3)cc21 | inactive: -10.4% | 
CCCCNC(=O)c1cc2cc(CC)ccc2[nH]1 |  | inconclusive: 18.4 µM [falling, partial curve, poor fit]
Cc1cccc(C(=O)Nc2ccc(C(=O)N/N=C/c3ccc4c(c3)OCO4)cc2)c1 |  | inconclusive: 1.84 µM [falling, full curve]
O=C1CC(SC(=NCc2ccc3c(c2)OCO3)Nc2ccccc2)C(=O)N1c1ccccc1 (configuration not stated) |  | inconclusive: 32.6 µM [falling, single point]
NS(=O)(=O)c1ccc2nc(NC(=O)c3ccncc3)sc2c1 |  | inconclusive: 25.9 µM [activator, single point]
CC(NC(=O)c1ccc(Nc2nc3ccccc3n3nnnc23)cc1)c1ccccc1 (configuration not stated) |  | inconclusive: 3.26 µM [falling, full curve]
C=CCNc1cc(C(F)(F)F)nc(-c2ccccn2)n1 |  | inconclusive: 0.0291 µM [falling, full curve, poor fit]
Cc1nc2nc(-c3ccc(Cl)cc3Cl)nn2c(C)c1CCC(=O)Nc1ccc(F)cc1 |  | inconclusive: 25.9 µM [falling, single point]
CCN(CC)c1ccc(/C=N/N2CCN(Cc3ccccc3Cl)CC2)c(O)c1 |  | inconclusive: 20.6 µM [activator, partial curve, poor fit]
CCOc1ccc(S(=O)(=O)N(CC(=O)N2CCc3ccccc32)Cc2ccco2)cc1 |  | inconclusive: 32.6 µM [falling, single point]
COC(=O)C1=C(C)N(c2cc(Cl)cc(Cl)c2)C(=O)C1 |  | active: 9.2 µM
NC(=O)CC(NC(=O)c1ccc(Br)cc1)c1ccc(NC2CCCCC2)c([N+](=O)[O-])c1 (configuration not stated) |  | inconclusive: 9.2 µM [falling, partial curve]

SMILES | activity change, negative = inhibition | Potency
Cc1sc(NC(=O)CSc2nnc(-c3ccccc3)o2)c(C#N)c1C |  | inconclusive: 7.31 µM [falling, partial curve, poor fit]
Cn1c(N2CCN(C(=O)Nc3ccc(F)cc3)CC2)nc2ccccc21 |  | inconclusive: 5.8 µM [falling, partial curve]
CCCn1nc(C(=O)NC2CCCC2)c2ccccc2c1=O | inactive: -12% | 
CCCc1ccc(OCc2ccc(C(=O)N/N=C/c3cccc([N+](=O)[O-])c3)o2)c(OC)c1 |  | inconclusive: 32.6 µM [falling, single point]
CCC1CN(C(=O)N2CCC(C(=O)Nc3cc(C)ccc3C)CC2)c2ccccc2O1 (configuration not stated) |  | inconclusive: 20.6 µM [activator, single point]
O=C(Nc1nc2ccccc2n1CCOc1ccc(Cl)cc1)c1ccco1 |  | inconclusive: 16.4 µM [falling, single point]
COc1ccc(/C=N/Nc2ncnc(Cl)c2N)cc1OC |  | inconclusive: 5.8 µM [activator, partial curve, poor fit]
Cc1ccc(C(=O)NNC(=O)c2ccc(S(=O)(=O)N(C)c3ccccc3)cc2)cc1 | inactive: -14.4% | 
COc1ccc(C(CC(=O)Nc2cccc(C)c2C)N2Cc3ccccc3C2=O)cc1 (configuration not stated) | inactive: -14.8% | 
COc1cc(-c2nnc(-c3ccco3)o2)ccc1OCc1ccccc1 | inactive: -17.3% | 
COC(=O)C1=C(C)NC(=O)C1(Nc1ccc(Cl)cn1)C(F)(F)F (configuration not stated) |  | inconclusive: 0.291 µM [falling, full curve, poor fit]
Cc1[nH]c2ccccc2c1/C=C(\C#N)C(=O)NCC1CCCO1 (configuration not stated) | inactive: -12.7% | 
Cc1ccc(C(=O)N2c3ccccc3N(Cc3ccccc3)C(=O)C2(C)C)cc1 |  | active: 11.6 µM
Cc1ccc(NC(=O)OCc2cncs2)cc1 |  | inconclusive: 6.51 µM [activator, full curve]
COc1cccc(C(=O)NNC2=C(C(=O)C(F)(F)F)CCC2)c1 |  | inconclusive: 23.1 µM [falling, single point]
CSc1ccc(C(=O)C2CCCN(C(=O)c3nn(C)c(=O)c4ccccc34)C2)cc1 (configuration not stated) |  | active: 18.4 µM
Cc1cccc2cc(C(c3nnnn3Cc3ccccc3)N3CCCc4ccccc43)c(=O)[nH]c12 (configuration not stated) |  | inconclusive: 9.2 µM [falling, partial curve]
N#Cc1nc(Nc2ccc(F)cc2)nc(NC2CCCC2)n1 | inactive: -13.4% | 
COc1ccc(NC(=S)NC(=O)C2CCC2)cc1 |  | inconclusive: 4.11 µM [activator, full curve, poor fit]
Cc1nn(CC(=O)NCCCN2CCN(C)CC2)c(=O)c2cc(-c3ccccc3)nn12 |  | inconclusive: 9.2 µM [activator, partial curve, poor fit]
CC(=O)N1CC(C(=O)Nc2ccc3c(c2)OCO3)Oc2ccccc21 (configuration not stated) | inactive: 7.6% | 

Entries from the list above with a nitro group on carbon, in the order listed:
SMILES | activity change, negative = inhibition | Potency
NC(=O)CC(NC(=O)c1ccc(Br)cc1)c1ccc(NC2CCCCC2)c([N+](=O)[O-])c1 (configuration not stated) |  | inconclusive: 9.2 µM [falling, partial curve]
CCCc1ccc(OCc2ccc(C(=O)N/N=C/c3cccc([N+](=O)[O-])c3)o2)c(OC)c1 |  | inconclusive: 32.6 µM [falling, single point]
